Data reported in publication PMC6009821.
Results are given in words; binding and its absence hold for the method and conditions named. For part of these data: In cells and extracts the contact can be indirect. Some binding calls cover weakened binding; strength is not graded here.

Assays:
[1] = biological target: Human epidermal growth factor receptor 2 (human (endogenous in NCI-N87)) (UniProt P04626); experiment: co-IP; cells treated with 20 μg/mL FITC-AHNP-PEG with or without 20 μg/ml non-FITC AHNP-PEG at 4 °C for 4 h, lysed; supernatant precipitated with biotinylated HER2 antibody on streptavidin agarose beads at 4 °C overnight; fluorescence of immunoprecipitates read; only the binder purified
[2] = biological target: Human epidermal growth factor receptor 2 (human (endogenous in NCI-N87)) (UniProt P04626); experiment: flow cytometry on cells; NCI-N87 cells treated with 20 μg/ml FITC-AHNP-PEG for 2 h; competitive group pre-treated with 20 μg/ml AHNP-PEG for 1 h; compared to FITC-PEG; only the binder purified

Binder	binding [1]	binding [2]
FCDGFYACYMDV (FITC label (site not stated); PEG conjugated (site not stated)) [FITC-labeled AHNP-PEG (polyethylene glycol linked anti-HER2/neu peptide)]	binds	binds
FCDGFYACYMDV (PEG conjugated (site not stated)) [polyethylene glycol (PEG) linked anti-HER2/neu peptide]	–	binds
